The source of these data is article PMC4674748, “Identification of the Replication Origins from Cyanothece ATCC 51142 and Their Interactions with the DnaA Protein: From In Silico to In Vitro Studies”.

Weaker means in comparison with the reference protein, sequence or condition of that experiment. Tags and fusion partners may be left off the protein sequences shown.

For the data set, the target named is T1, His6-DnaA (IV) (Cyanothece ATCC 51142) (UniProt B1X0X6).
T1 sequence (looked up, limits assumed): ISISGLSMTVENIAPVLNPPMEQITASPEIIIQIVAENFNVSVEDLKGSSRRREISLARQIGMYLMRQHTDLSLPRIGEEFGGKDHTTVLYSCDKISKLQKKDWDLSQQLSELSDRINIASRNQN
In words: EMSA. Particulars: 5-100 nM protein, 3 mM ATP, poly(dI-dC), lower affinity than Cbox23, EMSA: 20 mM Hepes/KOH pH 8.0, 5 mM Mg acetate, 1 mM Na2EDTA, 4 mM DTT, 0.2% Triton X-100, 3 mM ATP, 5 mg/mL BSA, 37 C 30 min, recombinant protein, protein details: N-terminal His6 (pET-28a, BamHI/HindIII). (In general: Mobility shift assays separate free from complexed probe on a gel.)

Turning to “ATCTTGAATGTTGATAAATTTAAGTATTTATCCTCAACATTG (double strand) [Lbox23 (2Box10B, 42 nt)]”, the binding result is reported as “binds more weakly”.
